Reference: publication PMC4634149

molecular target: T1, GST-AIP1 (full-length GST::AIP1) (Arabidopsis thaliana) (UniProt Q8H0V4); assay: pull-down; semi-in vivo pulldown: bacterially expressed recombinant GST-AIP1 with protein lysates of Arabidopsis 10-day-old plants; immunoblot with anti-ABAP1 or antibodies against histones; only the target purified
T1 sequence: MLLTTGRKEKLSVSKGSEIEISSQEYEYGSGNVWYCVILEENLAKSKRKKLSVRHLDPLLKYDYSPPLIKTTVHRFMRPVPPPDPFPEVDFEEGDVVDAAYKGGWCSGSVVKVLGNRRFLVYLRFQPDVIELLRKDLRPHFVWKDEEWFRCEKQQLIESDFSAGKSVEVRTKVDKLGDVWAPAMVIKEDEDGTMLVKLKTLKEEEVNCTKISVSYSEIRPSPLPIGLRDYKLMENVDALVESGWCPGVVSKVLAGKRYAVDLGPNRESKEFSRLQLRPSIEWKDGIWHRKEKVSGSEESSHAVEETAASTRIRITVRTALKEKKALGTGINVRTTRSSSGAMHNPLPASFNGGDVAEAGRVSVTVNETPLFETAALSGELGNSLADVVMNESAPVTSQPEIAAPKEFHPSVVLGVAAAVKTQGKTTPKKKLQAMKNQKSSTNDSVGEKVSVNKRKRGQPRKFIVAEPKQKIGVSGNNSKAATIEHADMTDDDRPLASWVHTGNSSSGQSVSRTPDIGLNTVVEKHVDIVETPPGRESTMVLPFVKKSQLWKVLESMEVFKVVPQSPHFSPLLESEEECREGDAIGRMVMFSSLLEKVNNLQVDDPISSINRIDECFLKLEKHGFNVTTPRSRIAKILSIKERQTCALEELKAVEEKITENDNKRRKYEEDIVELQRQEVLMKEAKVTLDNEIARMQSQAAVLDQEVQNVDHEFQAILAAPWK

**Q.** “non-modified histone H1 (endogenous, Arabidopsis plantlets)” was tested. Which binding did it give?
**A.** binds

**Q.** With “non-modified histone H2B (endogenous, Arabidopsis plantlets)” as the substance, how does the binding read?
**A.** binds

molecular target: T2, C-terminal portion of AIP1 containing the DUF724 domain (Arabidopsis thaliana) (UniProt Q8H0V4); assay: two-hybrid; S. cerevisiae PJ694 co-transformed; selection on -leu/-trp/-his or -leu/-trp/-his/-ade, 3 days at 30 °C; C-terminal portion of AIP1 (DUF724) fused with GAL4 AD against GAL4 DBD fusions (Additional File 4); Additional File 10 calls the AIP1 portion the bait
T2 sequence: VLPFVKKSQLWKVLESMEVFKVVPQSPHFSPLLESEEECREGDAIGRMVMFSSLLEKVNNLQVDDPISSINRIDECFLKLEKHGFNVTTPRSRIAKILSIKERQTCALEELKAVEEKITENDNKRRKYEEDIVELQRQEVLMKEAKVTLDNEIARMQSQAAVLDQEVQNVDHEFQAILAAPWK

**Q.** How did the binding turn out when PP2a was run?
**A.** no binding

**Q.** How did the binding turn out when HDAC2 was run?
**A.** no binding

**Q.** For SNF2/RAD54, which binding is on record?
**A.** no binding

**Q.** With DRB4 as the substance, how does the binding read?
**A.** no binding

**Q.** How did the binding turn out when CDC6 was run?
**A.** no binding

**Q.** Which binding does the source give for DBB here?
**A.** no binding

**Q.** HBO1 was tested. Which binding did it give?
**A.** no binding

**Q.** With HDAC1 as the substance, how does the binding read?
**A.** no binding

These are yes or no findings as the source states them, for the method shown. For some of these results: Binding seen in cells or lysates may run through a third protein. For some of these results: Binding calls can cover weak binding; strength is not graded here. For some of these results: Where a sequence is shown, tags or fusion partners need not be part of it.
